Data on 33 molecules can be found in patent publication EP4477665A1 (AffyXell Therapeutics Co., Ltd., dated 2024).

Results are given in words; binding and its absence hold for the method and conditions named. Some binding calls cover weakened binding; strength is not graded here.

The assay addresses T1, human CD40L (hCD40L antigen) (human, UniProt P29965 113-261, limits assumed).
T1 sequence (looked up): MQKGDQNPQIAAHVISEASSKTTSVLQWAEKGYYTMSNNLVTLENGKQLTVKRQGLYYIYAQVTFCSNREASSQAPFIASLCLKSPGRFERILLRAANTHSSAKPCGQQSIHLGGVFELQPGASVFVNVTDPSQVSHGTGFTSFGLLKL
Briefly: ELISA, bacterial lysate on immobilized human CD40L, anti-Myc detection.

B1: clone 295 (designed binder)
chain: MIPGGLSEAKPATPEIQEIVDKVKPQLEEKTGETYGKLEAVQYKTQVVREDLDLFYTGTNYYIKVRAGDNKYMHLKVFKSLEFILQPWWYEDLVLTGYQVDKNKDDELTGF
For the molecule B1, the binding entry was “binds”.

B2: clone 290 (designed binder)
chain: MIPGGLSEAKPATPEIQEIVDKVKPQLEEKTGETYGKLEAVQYKTQVVQEYLWKQYIGTNYYIKVRAGDNKYMHLKVFKSLRWQYRHPQTEDLVLTGYQVDKNKDDELTGF
Regarding B2, the binding result was “binds”.

B3: clone 292 (designed binder)
chain: MIPGGLSEAKPATPEIQEIVDKVKPQLEEKTGETYGKLEAVQYKTQVVHFGIRYAHVGTNYYIKVRAGDNKYMHLKVFKSLDYPRHHQDQEDLVLTGYQVDKNKDDELTGF
As to B3, the binding result is “binds”.

B4: clone 289 (designed binder)
chain: MIPGGLSEAKPATPEIQEIVDKVKPQLEEKTGETYGKLEAVQYKTQVVAWVKEHNLIGTNYYIKVRAGDNKYMHLKVFKSLYDQNQWSPHEDLVLTGYQVDKNKDDELTGF
Take B4: the binding result was “binds”.

B5: clone 301 (designed binder)
chain: MIPGGLSEAKPATPEIQEIVDKVKPQLEEKTGETYGKLEAVQYKTQVVGNVQEDWHIGTNYYIKVRAGDNKYMHLKVFKSLFSEDLTLNGEDLVLTGYQVDKNKDDELTGF
For the molecule B5, the binding entry is recorded as “binds”.

B6: clone 233 (designed binder)
chain: MIPGGLSEAKPATPEIQEIVDKVKPQLEEKTGETYGKLEAVQYKTQVVLQDQWPWRDGTNYYIKVRAGDNKYMHLKVFKSLTYGKKWYSWEDLVLTGYQVDKNKDDELTGF
In the case of B6, the binding entry is on record as “binds”.

B7: clone 283 (designed binder)
chain: MIPGGLSEAKPATPEIQEIVDKVKPQLEEKTGETYGKLEAVQYKTQVVHVLKVSSVSGTNYYIKVRAGDNKYMHLKVFKSLFYYRKRYDREDLVLTGYQVDKNKDDELTGF
With B7, the binding entry was “binds”.

B8: clone 287 (designed binder)
chain: MIPGGLSEAKPATPEIQEIVDKVKPQLEEKTGETYGKLEAVQYKTQVVLEDEWWSILGTNYYIKVRAGDNKYMHLKVFKSLPDAPAYSKSEDLVLTGYQVDKNKDDELTGF
In the case of B8, the binding entry is listed as “binds”.

B9: clone 276 (designed binder)
chain: MIPGGLSEAKPATPEIQEIVDKVKPQLEEKTGETYGKLEAVQYKTQVVSLGQAETWAGTNYYIKVRAGDNKYMHLKVFKSLFKYRHQQDKEDLVLTGYQVDKNKDDELTGF
On to B9, for which the binding entry was “binds”.

B10: clone 298 (designed binder)
chain: MIPGGLSEAKPATPEIQEIVDKVKPQLEEKTGETYGKLEAVQYKTQVVHYRIITHWEGTNYYIKVRAGDNKYMHLKVFKSLVRAFLYYKDEDLVLTGYQVDKNKDDELTGF
Regarding B10, the binding result was “binds”.

B11: clone 278 (designed binder)
chain: MIPGGLSEAKPATPEIQEIVDKVKPQLEEKTGETYGKLEAVQYKTQVVKIGQLPSRVGTNYYIKVRAGDNKYMHLKVFKSLYWYRNPADREDLVLTGYQVDKNKDDELTGF
In the case of B11, the binding result is recorded as “binds”.

B12: clone 296 (designed binder)
chain: MIPGGLSEAKPATPEIQEIVDKVKPQLEEKTGETYGKLEAVQYKTQVVNENVYRVTQGTNYYIKVRAGDNKYMHLKVFKSLKYRHRLTYEEDLVLTGYQVDKNKDDELTGF
Turning to B12, the binding entry is on record as “binds”.

B13: clone 288 (designed binder)
chain: MIPGGLSEAKPATPEIQEIVDKVKPQLEEKTGETYGKLEAVQYKTQVVYYKLVTWWRGTNYYIKVRAGDNKYMHLKVFKSLPDLNYEVTLEDLVLTGYQVDKNKDDELTGF
B13: the binding entry is reported as “binds”.

B14: clone 234 (designed binder)
chain: MIPGGLSEAKPATPEIQEIVDKVKPQLEEKTGETYGKLEAVQYKTQVDAGTNYYIKVRAGDNKYMHLKVFKSLYFYRHWEDREDLVLTGYQVDKNKDDELTGF
With B14, the binding entry is given as “binds”.

B15: clone 282 (designed binder)
chain: MIPGGLSEAKPATPEIQEIVDKVKPQLEEKTGETYGKLEAVQYKTQVVHVKIVTWWKGTNYYIKVRAGDNKYMHLKVFKSLYNPKPGIDNEDLVLTGYQVDKNKDDELTGF
For B15, the binding entry is “binds”.

B16: clone 305 (designed binder)
chain: MIPGGLSEAKPATPEIQEIVDKVKPQLEEKTGETYGKLEAVQYKTQVVESYAAIFWGGTNYYIKVRAGDNKYMHLKVFKSLWGEIQHWRQEDLVLTGYQVDKNKDDELTGF
Consider B16, for which the binding result is “binds”.

B17: clone 291 (designed binder)
chain: MIPGGLSEAKPATPEIQEIVDKVKPQLEEKTGETYGKLEAVQYKTQVVFNKDLFLGWGTNYYIKVRAGDNKYMHLKVFKSLRFSAGEEWEEDLVLTGYQVDKNKDDELTGF
B17: the binding result is on record as “binds”.

B18: clone 297 (designed binder)
chain: MIPGGLSEAKPATPEIQEIVDKVKPQLEEKTGETYGKLEAVQYKTQVVWHKIVTQWPGTNYYIKVRAGDNKYMHLKVFKSLYAQRGEVYFEDLVLTGYQVDKNKDDELTGF
For the molecule B18, the binding entry is reported as “binds”.

B19: clone 281 (designed binder)
chain: MIPGGLSEAKPATPEIQEIVDKVKPQLEEKTGETYGKLEAVQYKTQVVAVFDYADPSGTNYYIKVRAGDNKYMHLKVFKSLPYRYRTHHKEDLVLTGYQVDKNKDDELTGF
With B19, the binding entry was “binds”.

B20: clone 284 (designed binder)
chain: MIPGGLSEAKPATPEIQEIVDKVKPQLEEKTGETYGKLEAVQYKTQVVYQDYDSATHGTNYYIKVRAGDNKYMHLKVFKSLYQYRNPIDKEDLVLTGYQVDKNKDDELTGF
On to B20, for which the binding result is “binds”.

B21: clone 280 (designed binder)
chain: MIPGGLSEAKPATPEIQEIVDKVKPQLEEKTGETYGKLEAVQYKTQVVQTKLVTWWWGTNYYIKVRAGDNKYMHLKVFKSLLGEQYIDVDEDLVLTGYQVDKNKDDELTGF
Take B21: the binding result is given as “binds”.

B22: clone 302 (designed binder)
chain: MIPGGLSEAKPATPEIQEIVDKVKPQLEEKTGETYGKLEAVQYKTQVVGWSASYPESGTNYYIKVRAGDNKYMHLKVFKSLTQWEFIEWPEDLVLTGYQVDKNKDDELTGF
With B22, the binding entry was “binds”.

B23: clone 299 (designed binder)
chain: MIPGGLSEAKPATPEIQEIVDKVKPQLEEKTGETYGKLEAVQYKTQVVLVFDASTSAGTNYYIKVRAGDNKYMHLKVFKSLPWEFRGDHKEDLVLTGYQVDKNKDDELTGF
As for B23, the binding result is on record as “binds”.

B24: clone 307 (designed binder)
chain: MIPGGLSEAKPATPEIQEIVDKVKPQLEEKTGETYGKLEAVQYKTQVVQVKKWWEYFVTNYYIKVRAGDNKYMHLKVFKSLQLLSHQWTEEDLVLTGYQVDKNKDDELTGF
Turning to B24, the binding entry is recorded as “binds”.

B25: clone 293 (designed binder)
chain: MIPGGLSEAKPATPEIQEIVDKVKPQLEEKTGETYGKLEAVQYKTQVVWYAWQEGWQGTNYYIKVRAGDNKYMHLKVFKSLFRKKWAQLWEDLVLTGYQVDKNKDDELTGF
As for B25, the binding entry is “binds”.

B26: clone 304 (designed binder)
chain: MIPGGLSEAKPATPEIQEIVDKVKPQLEEKTGETYGKLEAVQYKTQVVAWITPVNVLGTNYYIKVRAGDNKYMHLKVFKSLDEIFHGAYNEDLVLTGYQVDKNKDDELTGF
Regarding B26, the binding entry is given as “binds”.

B27: clone 300 (designed binder)
chain: MIPGGLSEAKPATPEIQEIVDKVKPQLEEKTGETYGKLEAVQYKTQVVQYAEFLEHIGTNYYIKVRAGDNKYMHLKVFKSLGWSHYFQYLEDLVLTGYQVDKNKDDELTGF
As to B27, the binding entry was “binds”.

B28: clone 303 (designed binder)
chain: MIPGGLSEAKPATPEIQEIVDKVKPQLEEKTGETYGKLEAVQYKTQVVYQFEHISYGGTNYYIKVRAGDNKYMHLKVFKSLFTYRLPQHREDLVLTGYQVDKNKDDELTGF
Turning to B28, the binding result is “binds”.

B29: clone 286 (designed binder)
chain: MIPGGLSEAKPATPEIQEIVDKVKPQLEEKTGETYGKLEAVQYKTQVVSWGKVSNELGTNYYIKVRAGDNKYMHLKVFKSLIEYQSPALYEDLVLTGYQVDKNKDDELTGF
Regarding B29, the binding result is “binds”.

B30: clone 232 (designed binder)
chain: MIPGGLSEAKPATPEIQEIVDKVKPQLEEKTGETYGKLEAVQYKTQVVVHGPHLEQAGTNYYIKVRAGDNKYMHLKVFKSLGHAFYFAFVEDLVLTGYQVDKNKDDELTGF
With B30, the binding result is reported as “binds”.

B31: clone 279 (designed binder)
chain: MIPGGLSEAKPATPEIQEIVDKVKPQLEEKTGETYGKLEAVQYKTQVVAWHTKNNSIGTNYYIKVRAGDNKYMHLKVFKSLETKLAHEDIEDLVLTGYQVDKNKDDELTGF
For B31, the binding entry is “binds”.

B32: clone 294 (designed binder)
chain: MIPGGLSEAKPATPEIQEIVDKVKPQLEEKTGETYGKLEAVQYKTQVVGNAAWGSFAGTNYYIKVRAGDNKYMHLKVFKSLPFFYRKDNPEDLVLTGYQVDKNKDDELTGF
For B32, the binding result is “binds”.

B33: clone 306 (designed binder)
chain: MIPGGLSEAKPATPEIQEIVDKVKPQLEEKTGETYGKLEAVQYKTQVVRVWPWTWDRGTNYYIKVRAGDNKYMHLKVFKSLEQWLPNPYFEDLVLTGYQVDKNKDDELTGF
Take B33: the binding result is recorded as “binds”.
